Results as given in publication PMC12170836.
No constants are given. Whether binding was seen depends on the method and setting. In cells and extracts the contact can be indirect. Some binding calls cover weakened binding; strength is not graded here. For some assays here: Sequences can lack the tags named with a protein.

Tests used:
[1] = biological target: YTHDC1 W378A-FLAG (UniProt E9Q5K9); assay: co-IP; primary white adipocytes (Appendix Fig. S6B); adenoviral infection
[2] = biological target: T1, ARIH2-FLAG (UniProt Q9Z1K6); assay: co-IP; HEK293T cells co-transfected for 30 h; lysates in RIPA buffer; immunoprecipitated with anti-FLAG beads, immunoblotted with anti-HA and anti-FLAG; for the ARIH2-FLAG panels cells were treated with MG132 (20 μM) for 6 h
T1 sequence: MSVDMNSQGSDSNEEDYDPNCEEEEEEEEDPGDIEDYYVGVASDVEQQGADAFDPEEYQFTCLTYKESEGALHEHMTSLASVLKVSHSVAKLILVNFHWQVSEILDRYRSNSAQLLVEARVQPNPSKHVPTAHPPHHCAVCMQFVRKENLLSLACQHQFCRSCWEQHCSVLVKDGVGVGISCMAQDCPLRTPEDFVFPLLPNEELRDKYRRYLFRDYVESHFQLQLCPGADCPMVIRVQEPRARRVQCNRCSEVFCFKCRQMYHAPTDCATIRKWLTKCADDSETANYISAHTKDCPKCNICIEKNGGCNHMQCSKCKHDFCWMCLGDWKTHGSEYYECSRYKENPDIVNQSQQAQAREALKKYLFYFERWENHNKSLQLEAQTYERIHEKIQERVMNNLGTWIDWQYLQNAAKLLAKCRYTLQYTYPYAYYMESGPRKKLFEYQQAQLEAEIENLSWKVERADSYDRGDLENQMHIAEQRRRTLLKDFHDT

[3] = biological target: YTHDC1 W378A-FLAG (UniProt E9Q5K9); assay: as above
[4] = biological target: T1, ARIH2-FLAG; assay: co-IP; primary brown adipocytes co-infected with adenoviruses (48 h; overnight for Ad-ARIH2-FLAG); lysates in RIPA buffer; immunoprecipitated with anti-FLAG beads, immunoblotted with anti-HA and anti-FLAG; for the ARIH2-FLAG panel cells were treated with MG132 (20 μM) for 6 h
[5] = biological target: YTHDC1 W378A-FLAG (UniProt E9Q5K9); assay: as above

Measured: binding

PPARγ-HA (from UniProt P37238 1-505)
binds: [1] | [2] | [3] | [4] | [5]
